Measurements from “University of Dundee, Small-Polar-MMV Screening Library” (2021), ChEMBL document CHEMBL3988442.

Values are the deposited “Percent Effect”, in %.
How 0% and 100% were set is not recorded. Most values in the screen are low, and negative values occur.
This is an unselected part of the compounds tested.
A dash means the value is not listed here; it may have been measured.

Mtb growth Cornell: 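Whole-cell assay for inhibitors of Mycobacterium tuberculosis growth, labelled Cornell in the record; the read-out is not stated. The concentration is filed as 10 mM, unlikely as a test dose, so the dose is not known. The record gives no direction; compounds strong in two other growth screens of this library score well above the rest, so higher reads as stronger inhibition. Size under these conditions: about 53,000 compounds, about 900 of them at 50% or above in at least one test.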
Mtb heat-shock: 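Assay on Mycobacterium tuberculosis, filed only as a heat shock assay from Cornell; the read-out is not stated. The concentration is filed as 10 mM, unlikely as a test dose, so the dose is not known. Higher reads as stronger inhibition (inferred: compounds with an IC50 in retests scored well above the rest). Of about 69,000 compounds tested this way, about 930 (1.4%) reached 50% or more in at least one test.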

Compound,Mtb growth Cornell,Mtb heat-shock
CNC(=O)c1[nH]nc2ccc(I)cc12,-20.12,15.79
CC(C)OCCN1CCC(Nc2nccnc2C#N)CC1,-13.13,3.788
Cc1noc(CCCC(=O)N2CCNC(=O)C2)n1,-,-146.5
CCn1cnc(NC(=O)N2CCC(c3ccc(F)cc3)C2)n1 (stereo not given),13.94,0.8235
CC(C)NC(=O)CS(=O)(=O)Cc1coc(-c2ccc(F)cc2)n1,-,11.09
COc1cc(OC)cc(C2SCC(=O)Nc3ccsc32)c1 (stereo not given),-16.57,3.46
Cc1nc(-c2cccs2)ccc1C(=O)N1CCN(CC(C)O)CC1 (stereo not given),1.764,-14.04
CCc1ncc(C(=O)N2CCCOC(Cn3cccn3)C2)cn1 (stereo not given),-20.4,-5.537
Cc1cc(C)c2nc(CNCCNS(C)(=O)=O)cc(O)c2c1,0.1642,-33.8
COc1ccc(C(=O)N2CCCCC2c2ccccn2)c(OC)n1 (stereo not given),-29.75,-2.284
Cc1nc(COCc2nc3c(o2)CN(C(=O)c2ccoc2)C3)cs1,1.476,13.08
Cn1nccc1C(=O)N1Cc2cc(Cl)ccc2OC2(CCOCC2)C1,-6.484,1.165
COc1ccc(F)cc1C(C(=O)O)N1CCCN(C2CCCC2)CC1 (stereo not given),-,2.962
CS(=O)(=O)N1CCC(Oc2ccc(C(=O)NCC3CCC3)cc2Cl)CC1,-16.41,5.018
CCN(CC)C(=O)Cn1cc(-c2nc(C(C)C)no2)nn1,12.98,-6.218
Cc1nnc(NCc2cccnc2OCC(F)(F)F)c(C#N)c1C,-,-19.54
[H][C@@]12CN(Cc3cccnc3N)C[C@]1([H])N(Cc1ccccn1)C(=O)O2,33.18,4.342
Cc1cc(NCCc2nc(C)c[nH]2)nc(-c2ccccc2O)n1,-,7.352
Cc1ccc(C(=O)N(C)Cc2cc(Br)cs2)c(=O)[nH]1,-22.6,10.79
O=C(O)C(F)(F)F.[H][C@@]12CCN(Cc3ccccc3)C[C@]1([H])O[C@H](C(=O)NC1CC1)C2,-19.99,-18.23
Cc1c[nH]c(CN2CCN(C)C3(CCC(=O)N(CC4CC4)CC3)C2)n1 (stereo not given),6.993,-23.37
Cn1nccc1-c1ccc2nc(C3CCNCC3)nn2c1,-5.513,-27.93
CCN(Cc1ccccc1C)S(C)(=O)=O,4.799,-4.178
CC(C)Cc1nc(CN2CC(=O)N(C)c3ccccc3C2=O)no1,-,-29.97
CC(NC(=O)N(C)CCCOc1ccc(F)cc1)c1nncn1C (stereo not given),-,-10.74
CCN1CCN(C(=O)C(C)n2cc(Br)cn2)CC1 (stereo not given),-,-25.71
O=C(c1ccsc1)N1CCc2c(nc(-c3ccncc3)[nH]c2=O)C1,17.9,-11.21
Cc1ccc(C)c(-c2[nH]c3ccccc3c2C(=O)O)c1,-,-7.367
CN(C)S(=O)(=O)N1CCCC1C(=O)N1CCSCC1 (stereo not given),-31.66,-6.253
CNCC[C@H]1CC(C)(C)Oc2ccc(OC)cc21,-11.72,-9.612
COc1ccc(N2CCC(NS(=O)(=O)N(C)C(C)C)CC2)cc1,-22.78,-11.62
COc1cccc(N2CCN(Cc3ccc4occc4c3)CC2=O)c1,21.65,2.236
COC(=O)CN(C(=O)c1ccc(Cl)o1)c1cccc(F)c1,-,-16.23
Cc1csc2ncc(-c3ccnc(N4CCC[C@@H]4CO)n3)c(=O)n12,17.63,-11.68
Cc1nc(CN(C)C(=O)Nc2cccc(C)c2C)no1,29.24,0.453
COc1ccc(C2=NOC(C(=O)N3CCCc4ccccc43)C2)cc1 (stereo not given),17.88,21.14
N#Cc1cnc(N2Cc3cnn(Cc4ccc(F)cc4)c3C2)nc1N,-10.31,3.122
O=C(NCC1CC1)C1=NOC2(CCN(S(=O)(=O)c3cccs3)C2)C1 (stereo not given),7.848,0.1323
COc1cc(-c2nc3c([nH]2)CCCNC3=O)ccc1O,-3.146,1.501
CCN1CCCC(NC(=O)c2ccc(C)[nH]c2=O)C1 (stereo not given),2.448,16.93
CCOc1cccc(CNC(=O)NC2CC=CC2)c1OC(F)F,11.21,-7.777
CCc1cnc(CN(C(C)=O)C2CCN(CCN3CCCCC3)C2)o1 (stereo not given),5.533,6.36
[H][C@@]12CCN(C(=O)c3sccc3C)C[C@]1(c1nc(C)no1)CCO2,7.156,23.81
[H][C@@]12CN(C(=O)NC(C)C)C[C@]1([H])C(=O)N(Cc1cccc(C)c1)C2,5.753,7.345
CCOc1cccc(C(=O)N2CCC(c3n[nH]c(C4CC4)n3)CC2)c1,16.07,-6.415
COc1cc(NC(=O)N(C)C(C2CC2)C2CC2)ncn1,-15.69,-14.3
O=C(NCCCO)c1nnsc1-c1ccc(Cl)cc1,-29.99,4.973
CCS(=O)(=O)N1CCc2nc(N3CCOCC3)nc(N(C)C)c2CC1,31.51,-25.69
Cc1cc2ccccc2n1CCC(=O)N1CCN(C)CC1C(N)=O (stereo not given),81.47,-2.905
CCCc1cc(=O)[nH]c(-n2nc(C3CC3)cc2N)n1,107.6,101.7
CN(Cc1cccc(F)c1)Cc1nc2c(cnn2C)c(=O)[nH]1,-23.35,-24.66
CNc1nc2c(c(C(=O)N3CCCC3)n1)CN(Cc1ccco1)CC2,22.13,-4.992
Cc1ccc(C)c(OC(C)C(=O)NCCNc2cccnc2)c1 (stereo not given),-,3.28
CNc1cc2c(nn1)CCN(C(=O)c1cccc3c1OCO3)C2,4.662,5.093
COCC(O)CN(C)C(=O)NC1CCN(Cc2ccccn2)CC1 (stereo not given),10.13,-20.99
c1ncn(CC2CCCCN2Cc2noc(C3CC3)n2)n1 (stereo not given),-,14.09
CN(C)C(=O)N1CCC2(CC1)C(c1cnn(C)c1)CC(=O)N2C (stereo not given),-10.39,-22
CCc1cc(CN(C)C(=O)CN2CC(c3ccccc3)CC2=O)on1 (stereo not given),-,-38.47
Cn1ccnc1C1CCN(CCC2CCOC2)CC1 (stereo not given),29.9,-13.13
CC(C)Oc1cc(N2CC[C@H](CO)[C@@H](O)C2)nc(N)n1,-31.3,1.057
CN(C)C(=O)N1CCC(C(=O)N2CCOC(CC3CCCCC3)C2)CC1 (stereo not given),13.6,4.304
O=C(Cc1cccnc1)NCCSc1ccccc1F,-,-15.98
O=C(NC1CCCC1)NC1CCc2[nH]c(=O)ccc2C1 (stereo not given),-1.238,-2.429
O=C(CCNC(=O)c1ccc(Cl)cc1)NCc1nc(C2CC2)no1,24.63,29.97
c1ccc(Cn2cc(CNCC3CNc4ccnn4C3)cn2)cc1 (stereo not given),-,-40.92
COc1cccc(-c2ccc3nc(C4CCN(C(C)=O)CC4)nn3c2)c1,11.69,-1.033
Cc1ccc2nc(CN3CCC(O)(CN4CCCC4)CC3)cc(O)c2c1,20.37,-16.38
CCn1cc2c(n1)CN(S(=O)(=O)c1cn(C)cn1)CC2COC.O=C(O)C(F)(F)F (stereo not given),14.71,-14.73
Cc1ccc(N2CCCC3(CCN(C(=O)CC(F)(F)F)C3)C2)nn1 (stereo not given),4.047,1.167
COCCN(Cc1ccoc1)C(=O)c1ccccc1OC,-,16.29
COCCNc1nnc(-c2cnc(C)cn2)s1,-12.14,-27.99
[H][C@]12CCC(=O)N(c3ccccc3)[C@@]1([H])CCN2C(=O)c1ccc(C#N)cc1,-,7.876
CCN1C(=O)CC[C@]12CC[C@@H](NC(=O)c1ccncc1F)CC2.O=C(O)C(F)(F)F,21.86,11.43
CN(Cc1ccco1)C(=O)C1CSCN1C(=O)c1cccs1 (stereo not given),-,-6.923
CC(C(=O)NCCOc1cccc(Cl)c1)n1cncn1 (stereo not given),22.13,17.35
CC(NC(=O)N(C)Cc1cccc(OC(F)F)c1)c1nncn1C (stereo not given),31.67,-3.928
Nc1nc2c(c(NC(=O)Nc3ccc(Cl)c(Cl)c3)n1)CCCC2,-24.33,-19.55

7 of the entries, repeated:

{"compound": "CCCc1cc(=O)[nH]c(-n2nc(C3CC3)cc2N)n1", "Mtb growth Cornell": 107.6, "Mtb heat-shock": 101.7}
{"compound": "O=C(NCCCO)c1nnsc1-c1ccc(Cl)cc1", "Mtb growth Cornell": -29.99, "Mtb heat-shock": 4.973}
{"compound": "CCc1cc(CN(C)C(=O)CN2CC(c3ccccc3)CC2=O)on1", "stereo": "stereo not given", "Mtb heat-shock": -38.47}
{"compound": "CCn1cc2c(n1)CN(S(=O)(=O)c1cn(C)cn1)CC2COC.O=C(O)C(F)(F)F", "stereo": "stereo not given", "Mtb growth Cornell": 14.71, "Mtb heat-shock": -14.73}
{"compound": "CNc1cc2c(nn1)CCN(C(=O)c1cccc3c1OCO3)C2", "Mtb growth Cornell": 4.662, "Mtb heat-shock": 5.093}
{"compound": "COc1ccc(C2=NOC(C(=O)N3CCCc4ccccc43)C2)cc1", "stereo": "stereo not given", "Mtb growth Cornell": 17.88, "Mtb heat-shock": 21.14}
{"compound": "CCc1ncc(C(=O)N2CCCOC(Cn3cccn3)C2)cn1", "stereo": "stereo not given", "Mtb growth Cornell": -20.4, "Mtb heat-shock": -5.537}